Consider two compounds from ChEMBL document CHEMBL5674883, “The Heterochromatin Landscape in Migrating Cells and the Importance of H3K27me3 for Associated Transcriptome Alterations” (Cells, 2018).

By UniProt entry, the sequences of proteins in these tests, tags left out.
UniProt Q61188, whole entry: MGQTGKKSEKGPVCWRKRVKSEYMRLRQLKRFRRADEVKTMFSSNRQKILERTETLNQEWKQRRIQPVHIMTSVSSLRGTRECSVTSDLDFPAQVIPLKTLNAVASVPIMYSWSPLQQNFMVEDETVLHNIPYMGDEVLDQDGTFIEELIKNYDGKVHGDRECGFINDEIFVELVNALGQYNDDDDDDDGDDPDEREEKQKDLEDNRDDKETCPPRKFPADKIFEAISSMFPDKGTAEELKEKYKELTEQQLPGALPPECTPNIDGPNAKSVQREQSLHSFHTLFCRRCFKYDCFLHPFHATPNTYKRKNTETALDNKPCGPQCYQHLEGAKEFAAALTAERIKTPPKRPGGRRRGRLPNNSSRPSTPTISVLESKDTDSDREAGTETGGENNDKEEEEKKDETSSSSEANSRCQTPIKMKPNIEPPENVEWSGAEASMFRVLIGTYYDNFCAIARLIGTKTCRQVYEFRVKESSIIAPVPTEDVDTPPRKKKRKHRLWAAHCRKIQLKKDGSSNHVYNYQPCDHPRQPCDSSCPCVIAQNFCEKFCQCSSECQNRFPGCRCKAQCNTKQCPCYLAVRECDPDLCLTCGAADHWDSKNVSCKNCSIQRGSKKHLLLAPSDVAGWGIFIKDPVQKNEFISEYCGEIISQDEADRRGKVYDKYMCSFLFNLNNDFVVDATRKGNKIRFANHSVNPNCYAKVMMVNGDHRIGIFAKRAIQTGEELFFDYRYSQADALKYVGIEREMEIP

This continues a long series; more values of the same kind are listed elsewhere.

Common to all, as to format: cell-based
The target of assay [1] is T1, RNA polymerase II (Mus musculus) (UniProt P08775+Q8CFI7+P97760+A0A3Q4L2S8+Q80UW8+P61219+P62488+Q923G2+P60898+O08740+Q63871+P62876). Briefly: Inhibition of RNA polymerase II in mouse B16-F1 migrating cells assessed as fold change in 4930503L19Rik-RNA stability at 0.1 mM measured by ChIP-seq analysis relative to control cells.
Assay [2] concerns the target T1, RNA polymerase II (Mus musculus). Briefly: Inhibition of RNA polymerase II in mouse B16-F1 migrating cells assessed as fold change in Ermp1-RNA stability at 0.1 mM measured by ChIP-seq analysis relative to control cells.
The target is the same in assay [3]. Briefly: Inhibition of RNA polymerase II in mouse B16-F1 migrating cells assessed as fold change in Fbxl3-RNA stability at 0.1 mM measured by ChIP-seq analysis relative to control cells.
Assay [4] has the same target. Briefly: Inhibition of RNA polymerase II in mouse B16-F1 migrating cells assessed as fold change in Ska2-RNA stability at 0.1 mM measured by ChIP-seq analysis relative to control cells.
Assay [5] has the same target. Briefly: Inhibition of RNA polymerase II in mouse B16-F1 migrating cells assessed as fold change in Fam162a-RNA stability at 0.1 mM measured by ChIP-seq analysis relative to control cells.
Assay [6] shares this target. Briefly: Inhibition of RNA polymerase II in mouse B16-F1 migrating cells assessed as fold change in 1110008F13Rik-RNA stability at 0.1 mM measured by ChIP-seq analysis relative to control cells.
Assay [7] shares this target. Briefly: Inhibition of RNA polymerase II in mouse B16-F1 migrating cells assessed as fold change in Rap1a-RNA stability at 0.1 mM measured by ChIP-seq analysis relative to control cells.
The target is the same in assay [8]. Put plainly: Inhibition of RNA polymerase II in mouse B16-F1 migrating cells assessed as fold change in Wbp2-RNA stability at 0.1 mM measured by ChIP-seq analysis relative to control cells.
Assay [9] shares this target. Briefly: Inhibition of RNA polymerase II in mouse B16-F1 migrating cells assessed as fold change in Ngly1-RNA stability at 0.1 mM measured by ChIP-seq analysis relative to control cells.
For assay [10] the target is unchanged. Put plainly: Inhibition of RNA polymerase II in mouse B16-F1 migrating cells assessed as fold change in Nom1-RNA stability at 0.1 mM measured by ChIP-seq analysis relative to control cells.
Assay [11] shares this target. Put plainly: Inhibition of RNA polymerase II in mouse B16-F1 migrating cells assessed as fold change in Ssb-RNA stability at 0.1 mM measured by ChIP-seq analysis relative to control cells.
For assay [12] the target is unchanged. Put plainly: Inhibition of RNA polymerase II in mouse B16-F1 migrating cells assessed as fold change in Tssk4-RNA stability at 0.1 mM measured by ChIP-seq analysis relative to control cells.
The target is the same in assay [13]. Briefly: Inhibition of RNA polymerase II in mouse B16-F1 migrating cells assessed as fold change in Cpne3-RNA stability at 0.1 mM measured by ChIP-seq analysis relative to control cells.
Assay [14] has the same target. Put plainly: Inhibition of RNA polymerase II in mouse B16-F1 migrating cells assessed as fold change in Zfp654-RNA stability at 0.1 mM measured by ChIP-seq analysis relative to control cells.
Assay [15] has the same target. Briefly: Inhibition of RNA polymerase II in mouse B16-F1 migrating cells assessed as fold change in Rabep1-RNA stability at 0.1 mM measured by ChIP-seq analysis relative to control cells.
Assay [16] has the same target. Put plainly: Inhibition of RNA polymerase II in mouse B16-F1 migrating cells assessed as fold change in Strn3-RNA stability at 0.1 mM measured by ChIP-seq analysis relative to control cells.
Assay [17] has the same target. Put plainly: Inhibition of RNA polymerase II in mouse B16-F1 migrating cells assessed as fold change in Fnbp1l-RNA stability at 0.1 mM measured by ChIP-seq analysis relative to control cells.
Assay [18] has the same target. Put plainly: Inhibition of RNA polymerase II in mouse B16-F1 migrating cells assessed as fold change in Foxn2-RNA stability at 0.1 mM measured by ChIP-seq analysis relative to control cells.
For assay [19] the target is unchanged. Put plainly: Inhibition of RNA polymerase II in mouse B16-F1 migrating cells assessed as fold change in Cggbp1-RNA stability at 0.1 mM measured by ChIP-seq analysis relative to control cells.
For assay [20] the target is unchanged. Briefly: Inhibition of RNA polymerase II in mouse B16-F1 migrating cells assessed as fold change in Setd5-RNA stability at 0.1 mM measured by ChIP-seq analysis relative to control cells.
Assay [21] shares this target. Briefly: Inhibition of RNA polymerase II in mouse B16-F1 migrating cells assessed as fold change in Zfp729b-RNA stability at 0.1 mM measured by ChIP-seq analysis relative to control cells.
The target is the same in assay [22]. Put plainly: Inhibition of RNA polymerase II in mouse B16-F1 migrating cells assessed as fold change in Eif3k-RNA stability at 0.1 mM measured by ChIP-seq analysis relative to control cells.
Assay [23] has as its target Histone-lysine N-methyltransferase EZH2 (Mus musculus) (UniProt Q61188). Briefly: Inhibition of EZH2 in mouse B16-F1 migrating cells assessed as fold change in H3K27me3-independent regulated Bcl3-mRNA expression at 3 uM measured by ChIP-seq analysis relative to control cells.
Assay [24] shares this target. Put plainly: Inhibition of EZH2 in mouse B16-F1 migrating cells assessed as fold change in H3K27me3-buffered regulated Msmo1-mRNA expression at 3 uM measured by ChIP-seq analysis relative to control cells.
For assay [25] the target is unchanged. Put plainly: Inhibition of EZH2 in mouse B16-F1 migrating cells assessed as fold change in H3K27me3-buffered regulated Rps6ka2-mRNA expression at 3 uM measured by ChIP-seq analysis relative to control cells.
The target is the same in assay [26]. Put plainly: Inhibition of EZH2 in mouse B16-F1 migrating cells assessed as fold change in H3K27me3-buffered regulated Gm36401-mRNA expression at 3 uM measured by ChIP-seq analysis relative to control cells.
Assay [27] has the same target. Put plainly: Inhibition of EZH2 in mouse B16-F1 migrating cells assessed as fold change in H3K27me3-buffered regulated Lmna-mRNA expression at 3 uM measured by ChIP-seq analysis relative to control cells.
Assay [28] shares this target. Put plainly: Inhibition of EZH2 in mouse B16-F1 migrating cells assessed as fold change in H3K27me3-buffered regulated Slc6a17-mRNA expression at 3 uM measured by ChIP-seq analysis relative to control cells.
Assay [29] has the same target. Briefly: Inhibition of EZH2 in mouse B16-F1 migrating cells assessed as fold change in H3K27me3-buffered regulated Ice2-mRNA expression at 3 uM measured by ChIP-seq analysis relative to control cells.
For assay [30] the target is unchanged. Put plainly: Inhibition of EZH2 in mouse B16-F1 migrating cells assessed as fold change in H3K27me3-buffered regulated Lrrcc1-mRNA expression at 3 uM measured by ChIP-seq analysis relative to control cells.

For `OC[C@H]1O[C@@H](n2cnc3cc(Cl)c(Cl)cc32)[C@H](O)[C@@H]1O`, the log2FC is -0.96 in assay [1]; -0.4 in assay [2]; -1.06 in assay [3]; -0.77 in assay [4]; 0.91 in assay [5]; 0.41 in [6]. Moreover, the log2FC in [7] is -0.48; in assay [8] it was 0.42; in [9], -0.55; in assay [10], -0.53; in assay [11], -1.18; in [12], -0.88. Also, the log2FC in assay [13] was -0.55; in assay [14], -0.58; in [15], -0.44; in [16], -0.71; in assay [17] it was -0.51; in [18], -0.85. Moreover, the log2FC is -0.41 in assay [19], -0.44 in [20], -0.9 in assay [21] and 0.4 in [22].

For `CCCc1cc(C)[nH]c(=O)c1CNC(=O)c1cc(-c2ccnc(N3CCN(C)CC3)c2)cc2c1cnn2C(C)C`, the log2FC in [23] was 0.93; in assay [24] it was 0.51; in [25], 0.51; in assay [26], 0.6; in [27], 0.53; in assay [28] it was 0.69. For the same compound, the figures for the log2FC in assay [29] and in assay [30] were -0.43 and -0.44, respectively.
